# Laboratory results from the supplement of paper PMC8728848.
# The other results are listed elsewhere or left out.
# How the values were obtained:
# Assay in all cases: glycan array binding signal (z-score within array); higher = stronger binding
# Details in all cases: glycan notation: IUPAC condensed, linker removed
# [1] = biological target: Neu5Ac(a2-6)Gal(b1-4)GlcNAc(b1-2)Man(a1-3)Man(b1-4)GlcNAc(b1-4)GlcNAc
# Summary of the method: (§1)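 Glycan array data came from 3228 arrays in the Consortium for Functional Glycomics database, and only arrays with an available protein sequence were kept. Glycan names were put into IUPAC-condensed notation, and columns mapping to the same glycan were averaged. The binding signal is a within-array Z-score, averaged across arrays of one protein sequence run at different concentrations or buffers and across linkers. A negative Z-score can be read as non-binding.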
# [2] = biological target: Neu5Ac(a2-6)Gal(b1-4)GlcNAc(b1-2)Man(a1-3)[Gal(b1-4)GlcNAc(b1-2)Man(a1-6)]Man(b1-4)GlcNAc(b1-4)GlcNAc
# Summary of the method: as §1
# [3] = biological target: Neu5Ac(a2-6)Gal(b1-4)GlcNAc(b1-2)Man(a1-3)[GlcNAc(b1-2)Man(a1-6)]Man(b1-4)GlcNAc(b1-4)GlcNAc
# Summary of the method: as §1
# [4] = biological target: Neu5Ac(a2-6)Gal(b1-4)GlcNAc(b1-2)Man(a1-3)[GlcNAc(b1-2)Man(b1-4)GlcNAc(b1-2)Man(a1-6)]Man(b1-4)GlcNAc(b1-4)GlcNAc
# Summary of the method: as §1
# [5] = biological target: Neu5Ac(a2-6)Gal(b1-4)GlcNAc(b1-2)Man(a1-3)[Man(a1-6)]Man(b1-4)GlcNAc(b1-4)GlcNAc
# Summary of the method: as §1
# [6] = biological target: Neu5Ac(a2-6)Gal(b1-4)GlcNAc(b1-2)Man(a1-3)[Neu5Ac(a2-6)Gal(b1-4)GlcNAc(b1-2)Man(a1-6)]Man(b1-4)GlcNAc(b1-4)GlcNAc
# Summary of the method: as §1
# [7] = biological target: Neu5Ac(a2-6)Gal(b1-4)GlcNAc(b1-2)Man(a1-6)Man(b1-4)GlcNAc(b1-4)GlcNAc
# Summary of the method: as §1
# [8] = biological target: Neu5Ac(a2-6)Gal(b1-4)GlcNAc(b1-2)Man(a1-6)[Gal(b1-4)GlcNAc(b1-2)Man(a1-3)]Man(b1-4)GlcNAc(b1-4)GlcNAc
# Summary of the method: as §1
# [9] = biological target: Neu5Ac(a2-6)Gal(b1-4)GlcNAc(b1-2)Man(a1-6)[GlcNAc(b1-2)Man(a1-3)]Man(b1-4)GlcNAc(b1-4)GlcNAc
# Summary of the method: as §1
# [10] = biological target: Neu5Ac(a2-6)Gal(b1-4)GlcNAc(b1-2)Man(a1-6)[Man(a1-3)]Man(b1-4)GlcNAc(b1-4)GlcNAc
# Summary of the method: as §1
# [11] = biological target: Neu5Ac(a2-6)Gal(b1-4)GlcNAc(b1-3)Gal(b1-3)GlcNAc
# Summary of the method: as §1
# [12] = biological target: Neu5Ac(a2-6)Gal(b1-4)GlcNAc(b1-3)Gal(b1-4)GlcNAc
# Summary of the method: as §1
# [13] = biological target: Neu5Ac(a2-6)Gal(b1-4)GlcNAc(b1-3)Gal(b1-4)GlcNAc(b1-3)Gal(b1-4)GlcNAc
# Summary of the method: as §1
# [14] = biological target: Neu5Ac(a2-6)Gal(b1-4)GlcNAc(b1-3)Gal(b1-4)[Fuc(a1-3)]GlcNAc(b1-3)Gal(b1-4)[Fuc(a1-3)]GlcNAc
# Summary of the method: as §1
# [15] = biological target: Neu5Ac(a2-6)Gal(b1-4)GlcNAc(b1-3)GalNAc
# Summary of the method: as §1
# [16] = biological target: Neu5Ac(a2-6)Gal(b1-4)GlcNAc6S
# Summary of the method: as §1
# Neu5Ac(a2-6)GalNAc = biological target: Neu5Ac(a2-6)GalNAc
# Summary of the method: as §1
# [17] = biological target: Neu5Ac(a2-6)GalNAc(b1-4)GlcNAc
# Summary of the method: as §1
# [18] = biological target: Neu5Ac(a2-6)GlcNAc(b1-4)GlcNAc
# Summary of the method: as §1
# [19] = biological target: Neu5Ac(a2-6)GlcNAc(b1-4)GlcNAc(b1-4)GlcNAc
# Summary of the method: as §1
# Neu5Ac(a2-8)Neu5Ac = biological target: Neu5Ac(a2-8)Neu5Ac
# Summary of the method: as §1
# [20] = biological target: Neu5Ac(a2-8)Neu5Ac(a2-3)Gal(b1-4)Glc
# Summary of the method: as §1
# [21] = biological target: Neu5Ac(a2-8)Neu5Ac(a2-3)[GalNAc(b1-4)]Gal(b1-4)Glc
# Summary of the method: as §1
# [22] = biological target: Neu5Ac(a2-8)Neu5Ac(a2-8)Neu5Ac
# Summary of the method: as §1
# [23] = biological target: Neu5Ac(a2-8)Neu5Ac(a2-8)Neu5Ac(a2-3)Gal(b1-4)Glc
# Summary of the method: as §1
# [24] = biological target: Neu5Ac(a2-8)Neu5Ac(a2-8)Neu5Ac(a2-3)[GalNAc(b1-4)]Gal(b1-4)Glc
# Summary of the method: as §1
# [25] = biological target: Neu5Ac(a2-8)Neu5Ac(a2-8)Neu5Ac(a2-8)Neu5Ac(a2-3)[GalNAc(b1-4)]Gal(b1-4)Glc
# Summary of the method: as §1
# [26] = biological target: Neu5Ac(b2-6)Gal(b1-4)GlcNAc
# Summary of the method: as §1
# Neu5Ac(b2-6)GalNAc = biological target: Neu5Ac(b2-6)GalNAc
# Summary of the method: as §1
# [27] = biological target: Neu5Ac9Ac(a2-3)Gal(b1-3)GlcNAc
# Summary of the method: as §1
# [28] = biological target: Neu5Ac9Ac(a2-3)Gal(b1-4)GlcNAc
# Summary of the method: as §1
# [29] = biological target: Neu5Ac9Ac(a2-6)Gal(b1-4)GlcNAc
# Summary of the method: as §1
# [30] = biological target: Neu5Gc(a2-3)Gal(b1-3)GlcNAc
# Summary of the method: as §1
# [31] = biological target: Neu5Gc(a2-3)Gal(b1-3)[Fuc(a1-4)]GlcNAc
# Summary of the method: as §1
# Neu5Gc(a2-3)Gal(b1-4)Glc = biological target: Neu5Gc(a2-3)Gal(b1-4)Glc
# Summary of the method: as §1
# [32] = biological target: Neu5Gc(a2-3)Gal(b1-4)GlcNAc
# Summary of the method: as §1
# [33] = biological target: Neu5Gc(a2-3)Gal(b1-4)[Fuc(a1-3)]GlcNAc
# Summary of the method: as §1
# [34] = biological target: Neu5Gc(a2-6)Gal(b1-4)GlcNAc
# Summary of the method: as §1
# Neu5Gc(a2-6)GalNAc = biological target: Neu5Gc(a2-6)GalNAc
# Summary of the method: as §1
# [35] = biological target: Neu5Gc(b2-6)Gal(b1-4)GlcNAc
# Summary of the method: as §1
binder,measurement,setting,value
"BSR4 (Toxoplasma gondii), Q95NL6 (protein) MVMMGSMQQRRGGLRSNARQLLAVCMSGVVFFSSGQAVADNLLEGLLHRTLQQQVEVTSRLTVAGSDAKCDFFTPATQDSPPVSGSLTLSKGRMTATFECSATQALSISTIPTNIEQNVCDPKKTTNGTVCQFGANGSAGTEVTLKDLLETDRIVNWKVNEQREESNKSQKWSLELHNEDLPLTDKAFVVGCQATSAARGTESGKTAACKLTVNVEARASSLAENNVVTCAYGKGSNPNPVEVEMSTEKNTLTINCGSDGSLQPTTYAEEYCVADSKDVNRCSTTRFVEIFPKFLKSWWVTETQKRTSATLTIPQTDLPEADQQFLVGCVPKKTAPEDPKKDKESGTETGAPTSCTVLVTVKAASSASHASPTVQILAAASSAAA",glycan array binding signal (z-score),[1],0.893
same,glycan array binding signal (z-score),[2],-0.036
same,glycan array binding signal (z-score),[3],-0.243
same,glycan array binding signal (z-score),[4],-0.667
same,glycan array binding signal (z-score),[5],0.072
same,glycan array binding signal (z-score),[6],0.28
same,glycan array binding signal (z-score),[7],-0.654
same,glycan array binding signal (z-score),[8],-0.278
same,glycan array binding signal (z-score),[9],-0.085
same,glycan array binding signal (z-score),[10],-0.549
same,glycan array binding signal (z-score),[11],-0.445
same,glycan array binding signal (z-score),[12],-0.855
same,glycan array binding signal (z-score),[13],0.65
same,glycan array binding signal (z-score),[14],-0.379
same,glycan array binding signal (z-score),[15],0.313
same,glycan array binding signal (z-score),[16],-0.619
same,glycan array binding signal (z-score),Neu5Ac(a2-6)GalNAc,-0.76
same,glycan array binding signal (z-score),[17],-1.12
same,glycan array binding signal (z-score),[18],-0.182
same,glycan array binding signal (z-score),[19],-0.434
same,glycan array binding signal (z-score),Neu5Ac(a2-8)Neu5Ac,-0.055
same,glycan array binding signal (z-score),[20],-0.515
same,glycan array binding signal (z-score),[21],-0.035
same,glycan array binding signal (z-score),[22],-0.257
same,glycan array binding signal (z-score),[23],-0.05
same,glycan array binding signal (z-score),[24],-0.575
same,glycan array binding signal (z-score),[25],-0.454
same,glycan array binding signal (z-score),[26],-0.382
same,glycan array binding signal (z-score),Neu5Ac(b2-6)GalNAc,-0.144
same,glycan array binding signal (z-score),[27],-0.61
same,glycan array binding signal (z-score),[28],0.407
same,glycan array binding signal (z-score),[29],0.042
same,glycan array binding signal (z-score),[30],0.36
same,glycan array binding signal (z-score),[31],0.141
same,glycan array binding signal (z-score),Neu5Gc(a2-3)Gal(b1-4)Glc,0.227
same,glycan array binding signal (z-score),[32],-0.102
same,glycan array binding signal (z-score),[33],0.193
same,glycan array binding signal (z-score),[34],0.037
same,glycan array binding signal (z-score),Neu5Gc(a2-6)GalNAc,0.112
same,glycan array binding signal (z-score),[35],0.241

# Reprinted from the results shown (3 entries):
binder,measurement,setting,value
"BSR4 (Toxoplasma gondii), Q95NL6 (protein) MVMMGSMQQRRGGLRSNARQLLAVCMSGVVFFSSGQAVADNLLEGLLHRTLQQQVEVTSRLTVAGSDAKCDFFTPATQDSPPVSGSLTLSKGRMTATFECSATQALSISTIPTNIEQNVCDPKKTTNGTVCQFGANGSAGTEVTLKDLLETDRIVNWKVNEQREESNKSQKWSLELHNEDLPLTDKAFVVGCQATSAARGTESGKTAACKLTVNVEARASSLAENNVVTCAYGKGSNPNPVEVEMSTEKNTLTINCGSDGSLQPTTYAEEYCVADSKDVNRCSTTRFVEIFPKFLKSWWVTETQKRTSATLTIPQTDLPEADQQFLVGCVPKKTAPEDPKKDKESGTETGAPTSCTVLVTVKAASSASHASPTVQILAAASSAAA",glycan array binding signal (z-score),[32],-0.102
same,glycan array binding signal (z-score),[33],0.193
same,glycan array binding signal (z-score),[34],0.037
